Our source for the binding values is PMC5717335.

Results are given in words; binding and its absence hold for the method and conditions named. Binding seen in cells or lysates may run through a third protein. These calls come from enrichment with a bait or labelling near it, and not all partners need be listed.

The assay concerns the target Bod1-GFP (human), Q96IK1. The assay is described as follows: affinity purification with mass spectrometry; GFP Binder (Chromotek) affinity purification of Bod1-GFP from lysates of HeLa cells arrested in mitosis with STLC, 90 min at 4°C; label-free quantitative MS against cells expressing GFP alone; n = 4 biological replicates. The note with it: remark: other sources report otherwise.

B1: Ndc80 (Nuclear division cycle protein 80), O14777 1-642 (protein)
chain: MKRSSVSSGGAGRLSMQELRSQDVNKQGLYTPQTKEKPTFGKLSINKPTSERKVSLFGKRTSGHGSRNSQLGIFSSSEKIKDPRPLNDKAFIQQCIRQLCEFLTENGYAHNVSMKSLQAPSVKDFLKIFTFLYGFLCPSYELPDTKFEEEVPRIFKDLGYPFALSKSSMYTVGAPHTWPHIVAALVWLIDCIKIHTAMKESSPLFDDGQPWGEETEDGIMHNKLFLDYTIKCYESFMSGADSFDEMNAELQSKLKDLFNVDAFKLESLEAKNRALNEQIARLEQEREKEPNRLESLRKLKASLQGDVQKYQAYMSNLESHSAILDQKLNGLNEEIARVELECETIKQENTRLQNIIDNQKYSVADIERINHERNELQQTINKLTKDLEAEQQKLWNEELKYARGKEAIETQLAEYHKLARKLKLIPKGAENSKGYDFEIKFNPEAGANCLVKYRAQVYVPLKELLNETEEEINKALNKKMGLEDTLEQLNAMITESKRSVRTLKEEVQKLDDLYQQKIKEAEEEDEKCASELESLEKHKHLLESTVNQGLSEAMNELDAVQREYQLVVQTTTEERRKVGNNLQRLLEMVATHVGSVEKHLEEQIAKVDREYEECMSEDLSENIKEIRDKYEKKATLIKSSEE
Consider B1, for which the binding result is reported as “binds”.
